These are yes or no findings as the source states them, for the method shown. Binding seen in cells or lysates may run through a third protein. Some entries that bind do so weakly or less than the wild type.
Legend:
[1] = biological target: FAM111A^WT fusion protein (human) (UniProt Q96PZ2); assay: FRET or BRET; NanoBRET in HEK293T cells (Figure 1H); NanoLuc donor and HaloTag acceptor fusions; furimazine 10 uM, 37°C; BRET ratio in milliBRET units
[2] = biological target: FAM111A^WT fusion protein (human) (UniProt Q96PZ2); assay: FRET or BRET; NanoBRET in HEK293T cells; NanoLuc donor and HaloTag acceptor fusions of FAM111A WT with amino-terminal tags, compared with the empty vector; data not shown

Amino acid sequences for entries named in this document (tags omitted). A change or cut given only in a name is not applied to a line headed by its entry.
UniProt Q96PZ2: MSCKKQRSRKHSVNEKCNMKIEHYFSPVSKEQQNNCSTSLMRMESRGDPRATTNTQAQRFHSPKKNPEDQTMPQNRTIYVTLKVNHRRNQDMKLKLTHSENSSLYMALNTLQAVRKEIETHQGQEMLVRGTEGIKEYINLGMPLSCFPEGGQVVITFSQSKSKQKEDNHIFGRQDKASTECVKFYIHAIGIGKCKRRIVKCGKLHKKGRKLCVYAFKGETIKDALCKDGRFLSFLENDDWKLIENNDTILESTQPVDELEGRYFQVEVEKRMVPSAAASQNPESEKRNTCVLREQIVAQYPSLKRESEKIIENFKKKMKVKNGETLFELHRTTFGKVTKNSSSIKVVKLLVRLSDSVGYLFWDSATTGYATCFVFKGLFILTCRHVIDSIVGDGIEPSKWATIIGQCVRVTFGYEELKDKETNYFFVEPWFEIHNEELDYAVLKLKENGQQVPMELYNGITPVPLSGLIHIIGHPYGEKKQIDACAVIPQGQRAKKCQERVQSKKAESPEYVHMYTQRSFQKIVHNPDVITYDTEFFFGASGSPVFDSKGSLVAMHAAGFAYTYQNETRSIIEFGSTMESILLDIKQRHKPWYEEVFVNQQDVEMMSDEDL

binding [1] | binding [2] | Substance
binds | binds | FAM111A^WT fusion protein (from UniProt Q96PZ2 1-611)
binds | – | FAM111A^Y414C fusion protein (from UniProt Q96PZ2 1-611)
binds | – | mutant FAM111A fusion protein containing the R569H substitution (from UniProt Q96PZ2 1-611)
binds | – | mutant FAM111A fusion protein containing the S541Y substitution (from UniProt Q96PZ2 1-611)

Reference: article PMC11949059
